Measurements reported in PubChem BioAssay AID1053208 (Peter MacCallum Cancer Centre, 2014).

- Screen: 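Synthetic lethal interactions between gene loss and doxorubicin in osteosarcoma cells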 (primary screen)
- Cells: mouse osteosarcoma cells, early-passage culture from an engineered mouse model of fibroblastic bone tumour
- Reagent: siRNA pool against mouse genes, 40 nM
- Time to read-out: about 120 h (48 h before drug, then 72 h with drug)
- Conditions: doxorubicin 100 nM for 72 h, roughly 30-40% inhibitory dose
- Detection: 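Luminescent ATP signal taken as viability with or without 100 nM doxorubicin for 72 h; mean of two wells set against non-targeting siRNA and turned into robust z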
- Direction: viability z-score with doxorubicin: higher = more viable cells under doxorubicin; viability z-score without drug: higher = more viable cells with knock-down alone
- Call rule: 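a pool counts as active when its viability z-score with doxorubicin is -2 or below and its z-score without drug lies between -2 and 2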
The whole screen tested about 17,000 reagents; below is a part drawn at random. 788 of all reagents (4.7%) were called active. 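Calls rest on z-score classes alone; an extra cut-off of viability at most 70% of control was not applied to them.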 Unmarked entries are inactive. The numbers tell different reagents against one gene apart. Further read-outs or replicates are left out here. No sequences are given here.

Gene | pool no. | combined z-score class | viability z-score with doxorubicin | viability z-score without drug
Sh2d1b1 | 1 | no change with or without drug | -0.45 | 0.67
Ndel1 | 1 | no change with or without drug | 0.67 | 0.84
C1galt1 | 1 | no change with or without drug | 0.67 | -0.17
Il33 | 1 | no change with or without drug | 0.45 | 0.34
Engase | 1 | low cell count with doxorubicin only (active) | -2.59 | -1.18
Ear6 | 1 | no change with or without drug | -0.9 | 1.18
Ccdc85a | 1 | no change with or without drug | -0.34 | 1.85
Chst3 | 1 | no change with or without drug | -0.34 | 1.52
Ivns1abp | 1 | no change with or without drug | -0.79 | 0.51
Sh2b1 | 1 | no change with or without drug | -1.46 | -1.18
Adora3 | 1 | no change with or without drug | 0 | 0.34
Adora3 | 2 | no change with or without drug | 0.34 | -0.67
Inhca | 1 | no change with or without drug | -1.01 | -0.51
Adsl | 1 | no change with or without drug | 1.8 | 0.51
Manba | 1 | no change with or without drug | 0.45 | -0.84
Nacc1 | 1 | no change with or without drug | 0.67 | 1.18
Adam8 | 1 | no change with or without drug | -0.11 | 0.67
Igf2r | 1 | no change with or without drug | -0.67 | 0.84
Mrpl9 | 1 | low cell count without drug only | -1.35 | -2.53
Paqr6 | 1 | no change with or without drug | -0.22 | 0.84
Trub1 | 1 | no change with or without drug | 0.67 | -1.01
Eef1g | 1 | no change with or without drug | -0.9 | -1.52
Lhfpl4 | 1 | no change with or without drug | 0.22 | 0.34
Sdhaf2 | 1 | no change with or without drug | 0.45 | -0.34

Records listed so far whose gene name starts with A or a:
Gene | pool no. | combined z-score class | viability z-score with doxorubicin | viability z-score without drug
Adora3 | 1 | no change with or without drug | 0 | 0.34
Adora3 | 2 | no change with or without drug | 0.34 | -0.67
Adsl | 1 | no change with or without drug | 1.8 | 0.51
Adam8 | 1 | no change with or without drug | -0.11 | 0.67

The listing continues.
Gene | pool no. | combined z-score class | viability z-score with doxorubicin | viability z-score without drug
Metrnl | 1 | no change with or without drug | -0.9 | -0.51
Fndc4 | 1 | no change with or without drug | 0 | 0.67
Itsn1 | 1 | no change with or without drug | 0.22 | 0.51
Podxl2 | 1 | no change with or without drug | 0.34 | 1.01
Tdp1 | 1 | no change with or without drug | 0.22 | 0.51
Trmt2b | 1 | no change with or without drug | 0.34 | 0.17
Cdnf | 1 | low cell count with doxorubicin only (active) | -2.02 | -1.18
Hcrtr2 | 1 | no change with or without drug | 0.11 | -0.51
Ptgds | 1 | no change with or without drug | 0.11 | 1.01
Actr5 | 1 | no change with or without drug | 1.46 | -0.17
Pank1 | 1 | no change with or without drug | 0.9 | 0
Coa4 | 1 | high cell count without drug only | 0.67 | 2.19
Rhbdd3 | 1 | no change with or without drug | 0.45 | 1.01
Stat3 | 1 | no change with or without drug | 0.34 | -0.17
Mycbp2 | 1 | no change with or without drug | -1.46 | -0.51
Defb4 | 1 | no change with or without drug | -0.22 | 0.67
Mest | 1 | no change with or without drug | -0.22 | -0.67
Tbc1d17 | 1 | no change with or without drug | -0.22 | -0.51
Kmt2a | 1 | no change with or without drug | -0.22 | 0.34
Dynll2 | 1 | no change with or without drug | 0.22 | 0.34
Cadps2 | 1 | low cell count with doxorubicin only (active) | -4.27 | 1.52
Plekhg2 | 1 | no change with or without drug | -0.45 | -1.18
Atad1 | 1 | no change with or without drug | 0.22 | 0.17
Col27a1 | 1 | no change with or without drug | -0.22 | 1.18
Fez1 | 1 | no change with or without drug | -0.67 | 0.51
Abca14 | 1 | no change with or without drug | -0.34 | 0.67
